The source of these data is patent US20260224701A1.

These are yes or no findings as the source states them, for the method shown. A result given as binding can be weak or reduced; the word gives no strength.

The target in the experiment is Cynomolgus 4Ig-B7-H3 extracellular domain (cynomolgus). In words: biolayer interferometry (Octet), antibody captured on the probe.

B1: MIL33B-H3-hIgG1 (antibody, V domains shown)
VH: QVQLVQSGAEVKKPGASVKVSCKASGYTFTSYVMHWVRQAPGQRLEWMGYINSYSDGTKYNEKFKGRVTITRDTSASTAYMELSSLRSEDTAVYYCARWGGLGNGAMDYWGQGTLVTVSS
VL: EIVLTQSPATLSLSPGERATLSCSVSSSVNYMHWYQQKPGQAPRRLIYDTSKLASGIPARFSGSGSGTDYTLTISSLEPEDFAVYYCQQWTSNPLTFGQGTKLEIK
In the case of B1, the binding entry was “binds”.
